Laboratory results: PubChem BioAssay AID743454 (Peter MacCallum Cancer Centre, 2014)
In all, the deposit lists about 18,000 reagents; shown is a random part of them. In the full data, 450 (2.5%) were called active. 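Single biological run; no consistent viability z cut-off exists, so the class columns, not z-scores, define the calls.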 A number with no mark means an inactive call.

Purpose: 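Search for knock-downs that restore vorinostat killing in resistant colon cancer cells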 (primary screen)
Cell system: human HCT116-VR colon cancer cells, selected for vorinostat resistance
Knock-down reagent: siRNA pool against human genes, 40 nM siRNA pool
Time to read-out: vorinostat for 24 h, read-out about 72 h after transfection
Challenge: vorinostat at 2.5 µM final
Detection: 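Cell viability by CellTiter-Fluor and caspase 3/7 activity by luminescence, each scaled to mock wells per plate, duplicates averaged, then robust z-scored over all plates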
Scale: viability robust z-score: higher = more viable cells than screen typical; caspase robust z-score: higher = more caspase 3/7 activity than screen typical
Hit rule: 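a knock-down is a hit when classed RV1 or RV2 for lowered viability, or CA1 or CA2 for caspase activation; those lethal without drug were dropped; hits were retested singly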

gene symbol | viability hit class | caspase hit class | viability robust z-score | caspase robust z-score
DCTN5 (dynactin subunit 5) | no change | no change | -0.2 | -0.8
PLAT (plasminogen activator, tissue type) | no change | no change | 0.69 | -0.48
MEIG1 (meiosis/spermiogenesis associated 1) | no change | no change | 0.34 | -0.99
GCNT1 (glucosaminyl (N-acetyl) transferase 1) | no change | no change | -0.17 | 2.12
SEC16B (SEC16 homolog B, endoplasmic reticulum export factor) | no change | no change | 0.56 | -0.73
CEACAM4 (CEA cell adhesion molecule 4) | no change | no change | -0.08 | -0.22
PJA2 (praja ring finger ubiquitin ligase 2) | no change | no change | -0.31 | -0.76
CSNK1G2 (casein kinase 1 gamma 2) | no change | no change | 1.08 | 0.87
SREK1 (splicing regulatory glutamic acid and lysine rich protein 1) | no change | no change | 1.55 | 0.26
PP2D1 (protein phosphatase 2C like domain containing 1) | no change | no change | 0.98 | -0.66
OSBPL1A (oxysterol binding protein like 1A) | no change | no change | 0.92 | 0.42
XKRYP7 (XK related, Y-linked pseudogene 7) | no change | no change | -1.39 | 4.13
PMEL (premelanosome protein) | no change | no change | -0.08 | -0.24
JTB (jumping translocation breakpoint) | no change | no change | 0.02 | 0.01
XYLT1 (xylosyltransferase 1) | no change | no change | 0 | 3.84
FBXO25 (F-box protein 25) | no change | no change | 0.66 | -0.48
SNAPC5 (small nuclear RNA activating complex polypeptide 5) | no change | no change | 1.08 | -0.23
HCAR3 (hydroxycarboxylic acid receptor 3) | no change | no change | 0.38 | 1.75
MRPL28 (mitochondrial ribosomal protein L28) | no change | no change | 0.96 | -0.43
NAB2 (NGFI-A binding protein 2) | no change | no change | -0.91 | -0.44
SCRN2 (secernin 2) | no change | no change | 0.66 | 0.18
TRIM49 (tripartite motif containing 49) | no change | no change | -0.06 | 0.52
CFTR (CF transmembrane conductance regulator) | no change | no change | 0.37 | -1.04
MIF4GD (MIF4G domain containing) | no change | no change | 0.88 | -0.24
TBC1D26 (TBC1 domain family member 26) | no change | no change | -0.64 | -0.68
COX20 (cytochrome c oxidase assembly factor COX20) | no change | no change | 0.12 | 1.6
BNIP1 (BCL2 interacting protein 1) | no change | no change | -0.9 | 1.9
TMEM68 (transmembrane protein 68) | no change | no change | -0.09 | -0.57
WDR75 (WD repeat domain 75) | no change | no change | -1.88 | -0.14
NXF3 (nuclear RNA export factor 3) | no change | no change | 0.88 | 0
MRGBP (MRG domain binding protein) | no change | no change | -0.49 | 1.67
PCBP2 (poly(rC) binding protein 2) | no change | no change | 0.04 | -0.66
MDH1 (malate dehydrogenase 1) | no change | no change | -0.38 | -0.26
HTRA3 (HtrA serine peptidase 3) | no change | no change | -0.92 | 2.21
SPIN2B (spindlin family member 2B) | no change | no change | 0.26 | -0.34
TUT1 (terminal uridylyl transferase 1, U6 snRNA-specific) | no change | no change | -0.6 | 1.94
GPX6 (glutathione peroxidase 6) | no change | no change | 0.77 | 0.07
DAPL1 (death associated protein like 1) | no change | no change | -1 | 2.24
DCAF10 (DDB1 and CUL4 associated factor 10) | no change | no change | 0.62 | -0.31
NUDT9 (nudix hydrolase 9) | no change | no change | -0.11 | 0.62
EVI5L (ecotropic viral integration site 5 like) | no change | no change | 0.14 | -0.62
LDHAL6B (lactate dehydrogenase A like 6B) | no change | no change | -1.48 | -0.88
SKAP1 (src kinase associated phosphoprotein 1) | no change | no change | -0.84 | 0.46
PDIA2 (protein disulfide isomerase family A member 2) | no change | no change | 0.86 | 0.29
FAM110C (family with sequence similarity 110 member C) | no change | no change | -2.56 | -1.27
PRR18 (proline rich 18) | no change | no change | -0.17 | 2.1
FAM120A (family with sequence similarity 120 member A) | no change | no change | -0.34 | -0.2
ATP23 | no change | no change | 1.56 | 1.34
CADM1 (cell adhesion molecule 1) | no change | no change | -1.13 | -0.14
IFI44 (interferon induced protein 44) | no change | no change | 0.96 | -0.1
TMEM175 (transmembrane protein 175) | no change | no change | -1.01 | 0.06
PPRC1 (PPARG related coactivator 1) | no change | no change | 0.5 | 0.18
DNAJC28 (DnaJ heat shock protein family (Hsp40) member C28) | no change | no change | -0.24 | 1.31
DDX25 (DEAD-box helicase 25) | no change | no change | 0.06 | -0.32
NLGN1 (neuroligin 1) | no change | no change | -0.34 | -0.42
REXO5 (RNA exonuclease 5) | no change | no change | 0.12 | -0.66
CHDH (choline dehydrogenase) | no change | no change | 0.86 | -0.36

A stretch of the results above, as a working copy:
gene symbol | viability hit class | caspase hit class | viability robust z-score | caspase robust z-score
COX20 (cytochrome c oxidase assembly factor COX20) | no change | no change | 0.12 | 1.6
BNIP1 (BCL2 interacting protein 1) | no change | no change | -0.9 | 1.9
TMEM68 (transmembrane protein 68) | no change | no change | -0.09 | -0.57
WDR75 (WD repeat domain 75) | no change | no change | -1.88 | -0.14
NXF3 (nuclear RNA export factor 3) | no change | no change | 0.88 | 0
MRGBP (MRG domain binding protein) | no change | no change | -0.49 | 1.67
PCBP2 (poly(rC) binding protein 2) | no change | no change | 0.04 | -0.66
MDH1 (malate dehydrogenase 1) | no change | no change | -0.38 | -0.26
